Results are given in words; binding and its absence hold for the method and conditions named. Some results given as binding are weak or reduced against the parent protein; the word gives no strength.
Experiments:
[1] = molecular target: Wild type CD117 purified protein (human) (UniProt P10721); assay: binding kinetics, FIGS. 45A-45K
[2] = molecular target: Wild type CD117 purified protein (human) (UniProt P10721); assay: binding kinetics grade, FIGS. 55A-55C
[3] = molecular target: Wild type CD117 purified protein (human) (UniProt P10721); assay: binding kinetics (FIGS. 57A-57L)
[4] = molecular target: CC128 variant of CD117 (Y259C + N260D) purified protein (human) (UniProt P10721); assay: binding kinetics grade, FIGS. 55A-55C
[5] = molecular target: CC200 variant of CD117 (S261G) purified protein (human) (UniProt P10721); assay: binding kinetics grade, FIGS. 55A-55C

By UniProt entry, the sequences of proteins in these tests, tags left out. Where a name states a change or a piece, a line headed by the entry shows the natural chain unless it says otherwise.
UniProt P10721: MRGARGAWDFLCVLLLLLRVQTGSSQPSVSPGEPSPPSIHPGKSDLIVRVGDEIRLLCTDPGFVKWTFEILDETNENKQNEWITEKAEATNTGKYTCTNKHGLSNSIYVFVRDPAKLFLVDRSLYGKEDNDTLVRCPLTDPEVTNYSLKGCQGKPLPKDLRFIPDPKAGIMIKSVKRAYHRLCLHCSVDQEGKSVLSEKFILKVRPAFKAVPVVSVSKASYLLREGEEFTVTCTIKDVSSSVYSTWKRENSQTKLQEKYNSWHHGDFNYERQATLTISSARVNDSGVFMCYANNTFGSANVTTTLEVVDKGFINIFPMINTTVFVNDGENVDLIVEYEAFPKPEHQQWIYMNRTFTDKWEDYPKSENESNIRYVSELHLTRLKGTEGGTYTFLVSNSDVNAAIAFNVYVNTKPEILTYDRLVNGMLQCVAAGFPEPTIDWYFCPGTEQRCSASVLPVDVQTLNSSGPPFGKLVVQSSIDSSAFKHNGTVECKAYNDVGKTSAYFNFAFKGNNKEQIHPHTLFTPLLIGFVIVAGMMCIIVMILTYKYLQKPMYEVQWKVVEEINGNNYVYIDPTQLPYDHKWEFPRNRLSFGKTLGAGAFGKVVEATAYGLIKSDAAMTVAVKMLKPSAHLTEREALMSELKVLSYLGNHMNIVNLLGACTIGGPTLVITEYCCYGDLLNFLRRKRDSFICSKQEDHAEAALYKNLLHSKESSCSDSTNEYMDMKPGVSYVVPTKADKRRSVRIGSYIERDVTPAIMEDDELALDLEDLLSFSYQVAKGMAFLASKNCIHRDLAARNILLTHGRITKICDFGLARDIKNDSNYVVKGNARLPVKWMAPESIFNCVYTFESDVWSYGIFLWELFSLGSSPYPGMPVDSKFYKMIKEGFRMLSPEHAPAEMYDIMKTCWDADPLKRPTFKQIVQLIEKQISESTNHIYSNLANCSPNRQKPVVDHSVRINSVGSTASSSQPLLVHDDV

Row | binding [2] | binding [3] | Binder | further results
1 | – | – | ABTx052 variant VL_N92R (antibody, human IgG1, V domains shown) VH: QVQLVQSGAAVKKPGESLKISCKGSGYRFTSYWIGWVRQMPGKGLEWMGIIYPGDSDTRYSPSFQGQVTISAGKSISTAYLQWSSLKASDTAMYYCARHGRGYNGYEGAFDIWGQGTMVTVSS VL: AIQLTQSPSSLSASVGDRVTITCRASQGISSALAWYQQKPGKAPKLLIYDASSLESGVPSRFSGSGSGTDFTLTISSLQPEDFATYYCQQFRSYPLTFGGGTKVEIK | binding [1]: binds
2 | binds | – | ABTx262 (antibody, human IgG1, kappa, V domains shown) VH: QVQLVQSGAAVKKPGESLKISCKGSGYRFTSYWIGWVRQMPGKGLEWMGIIYPGDSDTRYSPSFQGQVTISAGKSISTAYLQWSSLKASDTAMYYCARHGRGYDAYEGAFDIWGQGTMVTVSS VL: AIQLTQSPSSLSASVGDRVTITCRASQGISSALAWYQQKPGKAPKLLIYDASSLESGVPSRFSGSGSGTDFTLTISSLQPEDFATYYCQQFRSSPLTFGGGTKVEIKR | –
3 | binds | binds | ABTx256 (antibody, human IgG1, kappa, V domains shown) VH: QVQLVQSGAAVKKPGESLKISCKGSGYRFTSYWIGWVRQMPGKGLEWMGIIYPGDSDTRYSPSFQGQVTISAGKSISTAYLQWSSLKASDTAMYYCARHGRGYDAYEGAFDIWGQGTMVTVSS VL: AIQLTQSPSSLSASVGDRVTITCRASQGISSALAWYQQKPGKAPKLLIYDASSLESGVPSRFSGSGSGTDFTLTISSLQPEDFATYYCQQTYSYPLTFGGGTKVEIKR | –
4 | binds | – | ABTx263 (antibody, human IgG1, kappa, V domains shown) VH: QVQLVQSGAAVKKPGESLKISCKGSGYRFTSYWIGWVRQMPGKGLEWMGIIYPGDSDTKYSPSFQGQVTISAGKSISTAYLQWSSLKASDTAMYYCARHGRGYDGYDGAFDIWGQGTMVTVSS VL: AIQLTQSPSSLSASVGDRVTITCRASQGISSALAWYQQKPGKAPKLLIYDASSLESGVPSRFSGSGSGTDFTLTISSLQPEDFATYYCQQVYSYPLTFGGGTKVEIKR | –
5 | binds | – | ABTx267 (antibody, human IgG1, kappa, V domains shown) VH: QVQLVQSGAAVKKPGESLKISCKGSGYRFTSYWIGWVRQMPGKGLEWMGIIYPGDSDTKYSPSFQGQVTISAGKSISTAYLQWSSLKASDTAMYYCARHGRGYDAYDGAFDIWGQGTMVTVSS VL: AIQLTQSPSSLSASVGDRVTITCRASQGISSALAWYQQKPGKAPKLLIYDASSLESGVPSRFSGSGSGTDFTLTISSLQPEDFATYYCQQTNSSPLTFGGGTKVEIKR | –
6 | – | – | ABTx052 variant VL_N92Y (antibody, human IgG1, V domains shown) VH: QVQLVQSGAAVKKPGESLKISCKGSGYRFTSYWIGWVRQMPGKGLEWMGIIYPGDSDTRYSPSFQGQVTISAGKSISTAYLQWSSLKASDTAMYYCARHGRGYNGYEGAFDIWGQGTMVTVSS VL: AIQLTQSPSSLSASVGDRVTITCRASQGISSALAWYQQKPGKAPKLLIYDASSLESGVPSRFSGSGSGTDFTLTISSLQPEDFATYYCQQFYSYPLTFGGGTKVEIK | binding [1]: binds
7 | binds | binds | ABTx265 (antibody, human IgG1, kappa, V domains shown) VH: QVQLVQSGAAVKKPGESLKISCKGSGYRFTSYWIGWVRQMPGKGLEWMGIIYPGDSDTKYSPSFQGQVTISAGKSISTAYLQWSSLKASDTAMYYCARHGRGYDGYDGAFDIWGQGTMVTVSS VL: AIQLTQSPSSLSASVGDRVTITCRASQGISSALAWYQQKPGKAPKLLIYDASSLESGVPSRFSGSGSGTDFTLTISSLQPEDFATYYCQQTRSYPLTFGGGTKVEIKR | –
8 | binds | – | ABTx249 (antibody, human IgG1, kappa, V domains shown) VH: QVQLVQSGAAVKKPGESLKISCKGSGYRFTSYWIGWVRQMPGKGLEWMGIIYPGDSDTRYSPSFQGQVTISAGKSISTAYLQWSSLKASDTAMYYCARHGRGYDGYEGAFDIWGQGTMVTVSS VL: AIQLTQSPSSLSASVGDRVTITCRASQGISSALAWYQQKPGKAPKLLIYDASSLESGVPSRFSGSGSGTDFTLTISSLQPEDFATYYCQQLNGYPLTFGGGTKVEIKR | binding [4]: binds; binding [5]: binds
9 | binds | – | ABTx269 (antibody, human IgG1, kappa, V domains shown) VH: QVQLVQSGAAVKKPGESLKISCKGSGYRFTSYWIGWVRQMPGKGLEWMGIIYPGDSDTKYSPSFQGQVTISAGKSISTAYLQWSSLKASDTAMYYCARHGRGYDGYEGAFDIWGQGTMVTVSS VL: AIQLTQSPSSLSASVGDRVTITCRASQGISSALAWYQQKPGKAPKLLIYDASSLESGVPSRFSGSGSGTDFTLTISSLQPEDFATYYCQQVYSYPLTFGGGTKVEIKR | –
10 | binds | – | ABTx258 (antibody, human IgG1, kappa, V domains shown) VH: QVQLVQSGAAVKKPGESLKISCKGSGYRFTSYWIGWVRQMPGKGLEWMGIIYPGDSDTKYSPSFQGQVTISAGKSISTAYLQWSSLKASDTAMYYCARHGRGYDAYEGAFDIWGQGTMVTVSS VL: AIQLTQSPSSLSASVGDRVTITCRASQGISSALAWYQQKPGKAPKLLIYDASSLESGVPSRFSGSGSGTDFTLTISSLQPEDFATYYCQQVRSYPLTFGGGTKVEIKR | –
11 | binds | binds | ABTx273 (antibody, human IgG1, kappa, V domains shown) VH: QVQLVQSGAAVKKPGESLKISCKGSGYRFTSYWIGWVRQMPGKGLEWMGIIYPGDSDTRYSPSFQGQVTISAGKSISTAYLQWSSLKASDTAMYYCARHGRGYDGYEGAFDIWGQGTMVTVSS VL: AIQLTQSPSSLSASVGDRVTITCRASQGISSALAWYQQKPGKAPKLLIYDASSLESGVPSRFSGSGSGTDFTLTISSLQPEDFATYYCQQFRSYPLTFGGGTKVEIKR | –
12 | – | – | ABTx052 variant VL_Y94S (antibody, human IgG1, V domains shown) VH: QVQLVQSGAAVKKPGESLKISCKGSGYRFTSYWIGWVRQMPGKGLEWMGIIYPGDSDTRYSPSFQGQVTISAGKSISTAYLQWSSLKASDTAMYYCARHGRGYNGYEGAFDIWGQGTMVTVSS VL: AIQLTQSPSSLSASVGDRVTITCRASQGISSALAWYQQKPGKAPKLLIYDASSLESGVPSRFSGSGSGTDFTLTISSLQPEDFATYYCQQFNSSPLTFGGGTKVEIK | binding [1]: binds
13 | – | – | ABTx052 variant VH_R59K (antibody, human IgG1, V domains shown) VH: QVQLVQSGAAVKKPGESLKISCKGSGYRFTSYWIGWVRQMPGKGLEWMGIIYPGDSDTKYSPSFQGQVTISAGKSISTAYLQWSSLKASDTAMYYCARHGRGYNGYEGAFDIWGQGTMVTVSS VL: AIQLTQSPSSLSASVGDRVTITCRASQGISSALAWYQQKPGKAPKLLIYDASSLESGVPSRFSGSGSGTDFTLTISSLQPEDFATYYCQQFNSYPLTFGGGTKVEIKR | binding [1]: binds
14 | – | – | ABTx252 (antibody, human IgG1, kappa, V domains shown) VH: QVQLVQSGAAVKKPGESLKISCKGSGYRFTSYWIGWVRQMPGKGLEWMGIIYPGDSDTRYSPSFQGQVTISAGKSISTAYLQWSSLKASDTAMYYCARHGRGYDGYEGAFDIWGQGTMVTVSS VL: AIQLTQSPSSLSASVGDRVTITCRASQGISSALAWYQQKPGKAPKLLIYDASSLESGVPSRFSGSGSGTDFTLTISSLQPEDFATYYCQQFNSHPLTFGGGTKVEIKR | binding [4]: binds; binding [5]: binds
15 | binds | binds | ABTx270 (antibody, human IgG1, kappa, V domains shown) VH: QVQLVQSGAAVKKPGESLKISCKGSGYRFTSYWIGWVRQMPGKGLEWMGIIYPGDSDTRYSPSFQGQVTISAGKSISTAYLQWSSLKASDTAMYYCARHGRGYDAYEGAFDIWGQGTMVTVSS VL: AIQLTQSPSSLSASVGDRVTITCRASQGISSALAWYQQKPGKAPKLLIYDASSLESGVPSRFSGSGSGTDFTLTISSLQPEDFATYYCQQVRSYPLTFGGGTKVEIKR | –
16 | binds | binds | ABTx272 (antibody, human IgG1, kappa, V domains shown) VH: QVQLVQSGAAVKKPGESLKISCKGSGYRFTSYWIGWVRQMPGKGLEWMGIIYPGDSDTKYSPSFQGQVTISAGKSISTAYLQWSSLKASDTAMYYCARHGRGYDGYDGAFDIWGQGTMVTVSS VL: AIQLTQSPSSLSASVGDRVTITCRASQGISSALAWYQQKPGKAPKLLIYDASSLESGVPSRFSGSGSGTDFTLTISSLQPEDFATYYCQQVRSYPLTFGGGTKVEIKR | –
17 | binds | binds | ABTx251 (antibody, human IgG1, kappa, V domains shown) VH: QVQLVQSGAAVKKPGESLKISCKGSGYRFTSYWIGWVRQMPGKGLEWMGIIYPGDSDTRYSPSFQGQVTISAGKSISTAYLQWSSLKASDTAMYYCARHGRGYDGYEGAFDIWGQGTMVTVSS VL: AIQLTQSPSSLSASVGDRVTITCRASQGISSALAWYQQKPGKAPKLLIYDASSLESGVPSRFSGSGSGTDFTLTISSLQPEDFATYYCQQFYSYPLTFGGGTKVEIKR | –
18 | – | – | ABTx052 variant VL_Y94H (antibody, human IgG1, V domains shown) VH: QVQLVQSGAAVKKPGESLKISCKGSGYRFTSYWIGWVRQMPGKGLEWMGIIYPGDSDTRYSPSFQGQVTISAGKSISTAYLQWSSLKASDTAMYYCARHGRGYNGYEGAFDIWGQGTMVTVSS VL: AIQLTQSPSSLSASVGDRVTITCRASQGISSALAWYQQKPGKAPKLLIYDASSLESGVPSRFSGSGSGTDFTLTISSLQPEDFATYYCQQFNSHPLTFGGGTKVEIK | binding [1]: binds
19 | binds | binds | ABTx268 (antibody, human IgG1, kappa, V domains shown) VH: QVQLVQSGAAVKKPGESLKISCKGSGYRFTSYWIGWVRQMPGKGLEWMGIIYPGDSDTKYSPSFQGQVTISAGKSISTAYLQWSSLKASDTAMYYCARHGRGYDGYEGAFDIWGQGTMVTVSS VL: AIQLTQSPSSLSASVGDRVTITCRASQGISSALAWYQQKPGKAPKLLIYDASSLESGVPSRFSGSGSGTDFTLTISSLQPEDFATYYCQQVNSYPLTFGGGTKVEIKR | –
20 | binds | – | ABTx261 (antibody, human IgG1, kappa, V domains shown) VH: QVQLVQSGAAVKKPGESLKISCKGSGYRFTSYWIGWVRQMPGKGLEWMGIIYPGDSDTKYSPSFQGQVTISAGKSISTAYLQWSSLKASDTAMYYCARHGRGYDAYEGAFDIWGQGTMVTVSS VL: AIQLTQSPSSLSASVGDRVTITCRASQGISSALAWYQQKPGKAPKLLIYDASSLESGVPSRFSGSGSGTDFTLTISSLQPEDFATYYCQQTRSYPLTFGGGTKVEIKR | –

Source: US20260166085A1
